Test results: patent publication US20230357391A1 (EXELIXIS, published 2023)
No constants are given. Whether binding was seen depends on the method and setting. Some binding calls cover weakened binding; strength is not graded here.

Sequences of proteins named here, by UniProt entry; tags and fusion partners are left off. A change or cut given only in a name is not applied to a line headed by its entry.
UniProt Q08722: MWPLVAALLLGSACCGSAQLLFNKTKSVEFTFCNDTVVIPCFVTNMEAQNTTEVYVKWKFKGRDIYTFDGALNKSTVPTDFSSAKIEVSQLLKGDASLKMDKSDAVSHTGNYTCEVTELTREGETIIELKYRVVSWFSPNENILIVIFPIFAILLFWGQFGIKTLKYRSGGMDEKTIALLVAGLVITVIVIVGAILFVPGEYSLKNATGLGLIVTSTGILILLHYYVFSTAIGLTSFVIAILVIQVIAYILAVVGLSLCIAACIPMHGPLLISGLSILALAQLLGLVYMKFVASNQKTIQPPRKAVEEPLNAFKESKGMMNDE

Experiments:
mouse CD47 (mouse) = biological target: T1, mouse CD47 (mouse) (UniProt Q61735); test: BLI (Octet), mouse CD47 on sensor; Y = mouse cross-reactivity
T1 sequence (biotinylated, looked up): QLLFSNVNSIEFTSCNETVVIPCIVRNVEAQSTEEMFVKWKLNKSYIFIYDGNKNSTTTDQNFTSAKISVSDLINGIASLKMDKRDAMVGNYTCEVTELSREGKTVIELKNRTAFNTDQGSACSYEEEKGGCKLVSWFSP

[1] = biological target: extracellular domain of human CD47, biotinylated (human) (UniProt Q08722); test: BLI (Octet), qualitative
[2] = biological target: human CD47 on cells (human) (UniProt Q08722); test: flow cytometry on MDA-MB-231 cells, AF488 goat anti-human IgG Fab as secondary
[3] = biological target: human CD47 on cells (human) (UniProt Q08722); test: flow cytometry, MDA-MB-231 cells

B1: Antibody C40 (antibody, human IgG1, kappa, V domains shown)
VH: EVQLVESGGGLVQPGGSLRLSCAASGFTFSYYYIHWVRQAPGKGLEWVAWIDPYGHSTTYADSVKGRFTISADTSKNTAYLQMNSLRAEDTAVYYCARGGRGAMDYWGQGTLVTAST
VL: DIQMTQSPSSLSASVGDRVTITCRASQSVSSAVAWYQQKPGKAPKLLIYSASSLYSGVPSRFSGSRSGTDFTLTISSLQPEDFATYYCQQRYSSLLTFGQGTKVEIKR
notes: Full length IgG
Mouse CD47 (mouse)
  binding: binds

B2: Antibody C59 (antibody, human IgG1, kappa, V domains shown)
VH: EVQLVESGGGLVQPGGSLRLSCAASGFTFTSYYIHWVRQAPGKGLEWVAYIDSKHGTTQYADSVKGRFTISADTSKNTAYLQMNSLRAEDTAVYYCARGGRSAMDYWGQGTLVTAST
VL: DIQMTQSPSSLSASVGDRVTITCRASQSVSSAVAWYQQKPGKAPKLLIYSASSLYSGVPSRFSGSRSGTDFTLTISSLQPEDFATYYCQQRTTSLLTFGQGTKVEIKR
notes: Full length IgG
[1]
  binding: binds
[2]
  binding: binds
[3]
  binding: binds
